For some of these results: Expression values are those of the mRNA of the gene that encodes the peptide; a gene is named only where it was looked up.
Legend:
[1] = tested on: HLA molecules of primary tumors and normal tissue samples; test: Identification and relative quantitation of HLA ligands by LC-MS (peptide presentation on tumor versus normal tissue); parameters: species or system human; settings: cancer entities on which the peptide was found presented (HLA ligands, LC-MS); abbreviations as in title of Table 8
source genes (mRNA) = test: Expression profiling of genes encoding the peptides (RNAseq, tumor versus normal tissues); parameters: species or system human; settings: source gene of the peptide; for Gene Expression in tumor samples: over-expressed (+): value = tumor type in which the gene is over-expressed compared to a panel of normal tissues; for Gene Expression in tumor samples: Highly over-expressed (++): value = tumor type in which the gene is highly over-expressed compared to a panel of normal tissues; for Gene Expression in tumor samples: very highly over-expressed (+++): value = tumor type in which the gene is very highly over-expressed compared to a panel of normal tissues

Row | Substance | Peptide Presentation on cancer entities [1] | Gene Expression in tumor samples: over-expressed (+) (source genes (mRNA)) | Gene Expression in tumor samples: Highly over-expressed (++) (source genes (mRNA)) | Gene Expression in tumor samples: very highly over-expressed (+++) (source genes (mRNA))
1 | 21: peptide found in NMUR2 (gene looked up) (LSSAVNPIIY; listed as Homo sapiens) [compound 21] | MEL | UEC | – | –
2 | 22: peptide found in TRPM8 (gene looked up) (VMDTLGLFY; listed as Homo sapiens) [compound 22] | BRCA, MEL, PRCA | HCC | PRCA | –
3 | 27: peptide found in LOXL4 (gene looked up) (PSEVPVDSHY; listed as Homo sapiens) [compound 27] | GBM, MEL | CCC | MEL | –
4 | 28: peptide found in LOXL4 (gene looked up) (PSEVPVDSHYY; listed as Homo sapiens) [compound 28] | NSCLCother, OC | CCC | MEL | –
5 | 38: peptide found in F5 (gene looked up) (KSWSQSSSLMY; listed as Homo sapiens) [compound 38] | HCC, HNSCC, MEL | CCC | HCC | –
6 | 39: peptide found in F5 (gene looked up) (WSQSSSLMY; listed as Homo sapiens) [compound 39] | AML, GBC, GC, HCC, NSCLCsquam | CCC | HCC | –
7 | 41: peptide found in NAT1 (gene looked up) (HSDLLEDSKY; listed as Homo sapiens) [compound 41] | AML, BRCA, CLL, GBC, GC, HCC, HNSCC, MEL, NHL, NSCLCadeno, NSCLCother, NSCLCsquam, OC, OSCAR, PACA, PRCA, SCLC, UBC, UEC | – | BRCA | –
8 | 42: peptide found in PTPRZ1 (gene looked up) (ASDVDTLLK; listed as Homo sapiens) [compound 42] | GBM | – | GBM | –
9 | 44: peptide found in PTPRZ1 (gene looked up) (IPSFNEMVY; listed as Homo sapiens) [compound 44] | GBM, NSCLCadeno, NSCLCsquam | – | GBM | –
10 | 53: peptide found in LOXL4 (gene looked up) (YLEDRPLSQLY; listed as Homo sapiens) [compound 53] | MEL, OC | – | MEL | –
11 | 57: peptide found in CYP1A1 (gene looked up) (ASDPASSTSCY; listed as Homo sapiens) [compound 57] | HCC | – | NSCLCother | –
12 | 63: peptide found in ROS1 (gene looked up) (TSEISQNALMY; listed as Homo sapiens) [compound 63] | NSCLCadeno, NSCLCother, NSCLCsquam | NSCLCother, NSCLCsquam | NSCLCadeno | –
13 | 64: peptide found in ROS1 (gene looked up) (TSEISQNALMYY; listed as Homo sapiens) [compound 64] | NSCLCadeno | NSCLCother, NSCLCsquam | NSCLCadeno | –
14 | 68: peptide found in FERMT1 (gene looked up) (QSLPEFGLTY; listed as Homo sapiens) [compound 68] | CCC, OSCAR | – | CRC | –
15 | 69: peptide found in FERMT1 (gene looked up) (QSLPEFGLTYY; listed as Homo sapiens) [compound 69] | OSCAR | – | CRC | –
16 | 73: peptide found in APOB (gene looked up) (STDSASYY; listed as Homo sapiens) [compound 73] | HCC | – | HCC | –
17 | 75: peptide found in ABCB11 (gene looked up) (FTDYELKAY; listed as Homo sapiens) [compound 75] | HCC | – | HCC | –
18 | 84: peptide found in ABCB11 (gene looked up) (ESEMIKFASYY; listed as Homo sapiens) [compound 84] | HCC | HCC | – | –
19 | 91: peptide found in SLC6A3 (gene looked up) (CLVLVIVLLY; listed as Homo sapiens) [compound 91] | NSCLCadeno | NSCLCadeno, NSCLCsquam | – | RCC

Row | Substance | Peptide Presentation on cancer entities [1] | Gene Expression in tumor samples: over-expressed (+) (source genes (mRNA)) | Gene Expression in tumor samples: Highly over-expressed (++) (source genes (mRNA)) | Gene Expression in tumor samples: very highly over-expressed (+++) (source genes (mRNA))
20 | 95: peptide found in MMP12 (gene looked up) (SSDPKAVMF; listed as Homo sapiens) [compound 95] | CRC | HCC, RCC | – | OSCAR, SCLC, UBC
21 | 97: peptide found in CYP4Z1 (gene looked up) (FPAPPAHWFY; listed as Homo sapiens) [compound 97] | BRCA | – | – | BRCA
22 | 100: peptide found in CYP4Z1 (gene looked up) (TTSSAISWILY; listed as Homo sapiens) [compound 100] | BRCA | – | BRCA | –
23 | 135: peptide found in F5 (gene looked up) (TFDKQIVLL; listed as Homo sapiens) [compound 135] | NSCLCother | CCC | HCC | –
24 | 137: peptide found in NAT1 (gene looked up) (EAYLERIGY; listed as Homo sapiens) [compound 137] | BRCA | – | BRCA | –
25 | 138: peptide found in PTPRZ1 (gene looked up) (IPVHDSVGVTY; listed as Homo sapiens) [compound 138] | MEL | – | GBM | –
26 | 139: peptide found in PTPRZ1 (gene looked up) (PVHDSVGVTY; listed as Homo sapiens) [compound 139] | GC, SCLC, UEC | – | GBM | –
27 | 140: peptide found in PTPRZ1 (gene looked up) (SQHIFTVSY; listed as Homo sapiens) [compound 140] | GBM, NSCLCsquam | – | GBM | –
28 | 141: peptide found in F5 (gene looked up) (DAVAPGREY; listed as Homo sapiens) [compound 141] | GBC | CCC | HCC | –
29 | 142: peptide found in PTPRZ1 (gene looked up) (IEKFAVLY; listed as Homo sapiens) [compound 142] | HNSCC | – | GBM | –
30 | 143: peptide found in PGR (gene looked up) (HVSGQMLYF; listed as Homo sapiens) [compound 143] | BRCA | BRCA | UEC | –
31 | 146: peptide found in MMP16 (gene looked up) (LCATVCGTEQY; listed as Homo sapiens) [compound 146] | HNSCC | BRCA | GBM, MEL | –
32 | 157: peptide found in IGF1R (gene looked up) (GLIEVVTGY; listed as Homo sapiens) [compound 157] | MEL, OC | – | BRCA | –
33 | 164: peptide found in ADAMTS12 (gene looked up) (KLAGTVFQY; listed as Homo sapiens) [compound 164] | NSCLCsquam | – | CCC, GBC | –
34 | 167: peptide found in F5 (gene looked up) (RAVQPGETY; listed as Homo sapiens) [compound 167] | NSCLCother, NSCLCsquam | CCC | HCC | –
35 | 168: peptide found in F5 (gene looked up) (VQPGETYTY; listed as Homo sapiens) [compound 168] | GBC | CCC | HCC | –
36 | 170: peptide found in EGFR (gene looked up) (VQIAKGMNY; listed as Homo sapiens) [compound 170] | NSCLCsquam | HNSCC | GBM | –
37 | 171: peptide found in EGFR (gene looked up) (ITDFGLAKL; listed as Homo sapiens) [compound 171] | NSCLCadeno | HNSCC | GBM | –

Reference: US12195506B2, “Immunotherapy with A*01 restricted peptides and combination of peptides against cancers and related methods” (Immatics Biotechnologies GmbH, priority 2018, dated 2025)
